# According to patent publication US20070032521A1, “Use of c-kit inhibitors for treating type II diabetes” (AB Science, priority 2003, published 2007):
# Some results were stated once for a whole list of compounds, not compound by compound.
# Experiments:
# [1] = molecular target: c-Kit JM Δ27 (Mus musculus, UniProt P05532); experiment: ex vivo TK inhibition, [3H] thymidine proliferation assay, mutated c-Kit (JM); format: cell-based, murine; details: Ba/F3 mkitΔ27 (juxtamembrane deletion), [3H] thymidine incorporation after 2 days of culture
# [2] = molecular target: c-Kit WT (UniProt P05532); experiment: ex vivo TK inhibition, [3H] thymidine proliferation assay, c-Kit WT; format: cell-based; details: Ba/F3-derived cells, [3H] thymidine incorporation after 2 days of culture
smiles,measurement,setting,value
"Cc1ccc(NC(=O)c2ccc(OS(=O)(=O)c3cccc(F)c3)cc2)cc1Nc1nc(-c2cccnc2)cs1 [Compound 056, 3-Fluoro-benzenesulfonic acid 4-[4-methyl-3-(4-pyridin-3-yl-thiazol-2-ylamino)-phenylcarbamoyl]-phenyl ester]",IC50,[1],< 1 µM
same,IC50,[2],< 10 µM
"Cc1cccc(C(=O)Nc2ccc(C)c(Nc3nc(-c4cccnc4)cs3)c2)c1 [Compound 061, 3-Methyl-N-[4-methyl-3-(4-pyridin-3-yl-thiazol-2-ylamino)-phenyl]-benzamide]",IC50,[1],< 1 µM
same,IC50,[2],< 10 µM
"Cc1ccc(NC(=O)c2cccc(-c3ccccc3)c2)cc1Nc1nc(-c2cccnc2)cs1 [Compound 062, Biphenyl-3-carboxylic acid [4-methyl-3-(4-pyridin-3-yl-thiazol-2-ylamino)-phenyl]-amide]",IC50,[1],< 1 µM
same,IC50,[2],< 10 µM
"Cc1ccc(NC(=O)c2ccncc2)cc1Nc1nc(-c2cccnc2)cs1 [Compound 063, N-[4-Methyl-3-(4pyridin-3-yl-thiazol-2-ylamino)-phenyl]-isonicotinamide]",IC50,[1],< 1 µM
same,IC50,[2],< 10 µM
"Cc1ccc(NC(=O)c2cc(Cl)nc(Cl)c2)cc1Nc1nc(-c2cccnc2)cs1 [Compound 064, 2,6-Dichloro-N-[4methyl-3-(4-pyridin-3-yl-thiazol-2-ylamino)-phenyl]-isonicotinamide]",IC50,[1],< 1 µM
same,IC50,[2],< 10 µM
"Cc1ccc(NC(=O)c2cccc(C(F)(F)F)c2)cc1Nc1nc(-c2cccnc2)cs1 [Compound 065, N-[4Methyl-3-(4-pyridin-3-yl-thiazol-2-ylamino)-phenyl]-3-trifluoromethyl-benzamide]",IC50,[1],< 1 µM
same,IC50,[2],< 10 µM
"Cc1ccc(NC(=O)c2cc(Br)c(CN3CCN(C)CC3)c(Br)c2)cc1Nc1nc(-c2cccnc2)cs1 [Compound 067, 3,5-Dibromo-4-(4-methyl-piperazin-1-ylmethyl)-N-[4-methyl-3-(4-pyridin-3-yl-thiazol-2-ylamino)-phenyl]-benzamide]",IC50,[1],< 1 µM
same,IC50,[2],< 10 µM
Cc1ccc(NC(=O)c2ccc(CN(C(C)C)C(C)C)cc2)cc1Nc1nc(-c2cccnc2)cs1 [Compound 072],IC50,[1],< 1 µM
same,IC50,[2],< 10 µM
"Cc1ccc(NC(=O)c2ccc(CNC(=O)OC(C)(C)C)cc2)cc1Nc1nc(-c2cccnc2)cs1 [Compound 073, {4-[4-Methyl-3-(4-pyridin-3-yl-thiazol-2-ylamino)-phenylcarbamoyl]-benzyl}-carbamic acid tert-butyl ester]",IC50,[1],< 1 µM
same,IC50,[2],< 10 µM
Cc1ccc(NC(=O)c2ccc(CN3CCN(C)CC3)c(C(F)(F)F)c2)cc1Nc1nc(-c2cccnc2)cs1 [Compound 075],IC50,[1],< 1 µM
same,IC50,[2],< 10 µM
"Cc1ccc(NC(=O)c2ccc(CN3CCN(C)CC3)c(Br)c2)cc1Nc1nc(-c2cccnc2)cs1 [Compound 078, 3-Bromo-4-(4-methyl-piperazin-1-ylmethyl)-N-[4-methyl-3-(4-pyridin-3-yl-thiazol-2-ylamino)-phenyl]-benzamide]",IC50,[1],< 1 µM
same,IC50,[2],< 10 µM
"Cc1ccc(NC(=O)c2ccc(CN3CCN(C)CC3)c(Cl)c2)cc1Nc1nc(-c2cccnc2)cs1 [Compound 079, 3-Chloro-4-(4-methyl-piperazin-1-ylmethyl)-N-[4-methyl-3-(4-pyridin-3-yl-thiazol-2-ylamino)-phenyl]-benzamide]",IC50,[1],< 1 µM
same,IC50,[2],< 10 µM
"Cc1ccc(NC(=O)c2ccc(CN3CCN(C)CC3)cc2)cc1Nc1nc(-c2ccncc2)cs1 [Compound 080, 4-(4-Methyl-piperazin-1-ylmethyl)-N-[4-methyl-3-(4-pyridin-4-yl-thiazol-2-ylamino)-phenyl]-benzamide]",IC50,[1],< 1 µM
same,IC50,[2],< 10 µM
"Cc1ccc(NC(=O)c2ccc(CN3CCN(C)CC3)cc2)cc1Nc1nc(-c2ccc(C#N)cc2)cs1 [Compound 081, N-{3-[4-(4-Cyano-phenyl)-thiazol-2-ylamino]-4-methyl-phenyl}-4-(4-methyl-piperazin-1-ylmethyl)-benzamide]",IC50,[1],< 1 µM
same,IC50,[2],< 10 µM
Cc1ccc(NC(=O)c2ccc(C(C)N3CCN(C)CC3)cc2)cc1Nc1nc(-c2cccnc2)cs1 (centres unmarked) [Compound 082],IC50,[1],< 1 µM
same,IC50,[2],< 10 µM
"Cc1cncc(-c2csc(Nc3cc(NC(=O)c4ccc(CN5CCN(C)CC5)cc4)ccc3C)n2)c1 [Compound 084, N-{4-Methyl-3-[4-(5-methyl-pyridin-3-yl)-thiazol-2-ylamino]-phenyl}-4-(4-methyl-piperazin-1-ylmethyl)-benzamide]",IC50,[1],< 1 µM
same,IC50,[2],< 10 µM
"Cc1ccc(NC(=O)c2ccc(CNC(=O)Nc3ccc(C(F)(F)F)cc3)cc2)cc1Nc1nc(-c2cccnc2)cs1 [Compound 086, N-[4-Methyl-3-(4-pyridin-3-yl-thiazol-2-ylamino)-phenyl]-4-[3-(4-trifluoromethyl-phenyl)-ureidomethyl]-benzamide]",IC50,[1],< 1 µM
same,IC50,[2],< 10 µM
"Cc1ccc(NC(=O)c2cc(Br)c(CNCCCN3CCOCC3)c(Br)c2)cc1Nc1nc(-c2cccnc2)cs1 [Compound 087, 3,5-Dibromo-N-[4-methyl-3-(4-pyridin-3-yl-thiazol-2-ylamino)-phenyl]-4-[(3-morpholin-4-yl-propylamino)-methyl]-benzamide]",IC50,[1],< 1 µM
same,IC50,[2],< 10 µM
"Cc1ccc(NC(=O)c2cccc(N(C)C)c2)cc1Nc1nc(-c2cccnc2)cs1 [Compound 088, 3-Dimethylamino-N-[4-methyl-3-(4-pyridin-3-yl-thiazol-2-ylamino)-phenyl]-benzamide]",IC50,[1],< 1 µM
same,IC50,[2],< 10 µM
"Cc1ccc(NC(=O)c2cccc(N3CCN(C)CC3)c2)cc1Nc1nc(-c2cccnc2)cs1 [Compound 089, 3-(4-Methyl-piperazin-1-yl)-N-[4-methyl-3-(4-pyridin-3-yl-thiazol-2-ylamino)-phenyl]-benzamide]",IC50,[1],< 1 µM
same,IC50,[2],< 10 µM
"Cc1ccc(NC(=O)c2cccc(N3CCOCC3)c2)cc1Nc1nc(-c2cccnc2)cs1 [Compound 090, N-[4-Methyl-3-(4-pyridin-3-yl-thiazol-2-ylamino)-phenyl]-3-morpholin-4-yl-benzamide]",IC50,[1],< 1 µM
same,IC50,[2],< 10 µM
"Cc1ccc(NC(=O)C2CCCCC2)cc1Nc1nc(-c2cccnc2)cs1 [Compound 093, 5-[4Methyl-3-(4-pyridin-3-y-thiazol-2-ylamino)-phenylcarbamoyl]-pentanoic acid ethyl ester]",IC50,[1],< 1 µM
same,IC50,[2],< 10 µM
"Cc1ccc(NC(=O)C2(C)CCCCC2)cc1Nc1nc(-c2cccnc2)cs1 [Compound 094, 1-Methyl-cyclohexanecarboxylic acid [4-methyl-3-(4-pyridin-3-yl-thiazol-2-ylmethyl)-phenyl]-amide]",IC50,[1],< 1 µM
same,IC50,[2],< 10 µM
"Cc1ccc(NC(=O)C2CCC(C(C)(C)C)CC2)cc1Nc1nc(-c2cccnc2)cs1 (centres unmarked) [Compound 095, 4-tert-Butyl-cyclohexanecarboxylic acid [4-methyl-3-(4-pyridin-3-yl-thiazol-2-ylamino)-phenyl]-amide]",IC50,[1],< 1 µM
same,IC50,[2],< 10 µM
"Cc1ccc(NC(=O)CCCN2CCOCC2)cc1Nc1nc(-c2cccnc2)cs1 [Compound 096, N-[4-Methyl-3-(4-pyridin-3-yl-thiazol-2-ylamino)-phenyl]-4-morpholin-4-yl-butyramide]",IC50,[1],< 1 µM
same,IC50,[2],< 10 µM
"Cc1ccc(NC(=O)OCC(C)C)cc1Nc1nc(-c2cccnc2)cs1 [Compound 097, [4-Methyl-3-(4-pyridin-3-yl-thiazol-2-ylamino)-phenyl]-carbamic acid isobutyl ester]",IC50,[1],< 1 µM
same,IC50,[2],< 10 µM
"Cc1ccc(NC(=O)c2ccc(C#N)cc2)cc1Nc1nc(-c2cccnc2)cs1 [Compound 103, 4-Cyano-N-[4methyl-3-(4-pyridin-3-yl-thiazol-2-ylamino)-phenyl]-benzamide]",IC50,[1],< 1 µM
same,IC50,[2],< 10 µM
"Cc1ccc(C(=O)Nc2ccc(C)c(Nc3nc(-c4cccnc4)cs3)c2)cc1Br [Compound 105, 3-Bromo4-methyl-N-[4-methyl-3-(4-pyridin-3-yl-thiazol-2-ylamino)-phenyl]-benzamide]",IC50,[1],< 1 µM
same,IC50,[2],< 10 µM
"Cc1ccc(NC(=O)c2cc(Br)c(CN3CCCCC3)c(Br)c2)cc1Nc1nc(-c2cccnc2)cs1 [Compound 107, 3,5-Dibromo-N-[4-methyl-3-(4-pyridin-3-yl-thiazol-2-ylamino)-phenyl]-4-piperidin-1-ylmethyl-benzamide]",IC50,[1],< 1 µM
same,IC50,[2],< 10 µM
"Cc1ccc(NC(=O)c2ccc(CN3CCN(C)CC3)cc2)cc1Nc1nc(-c2ccc(Cl)cc2)cs1 [Compound 108, N-{3-[4-(4-Chloro-phenyl)-thiazol-2-ylamino]-4-methyl-phenyl}-4-(4-methyl-piperazin-1-ylmethyl)-benzamide]",IC50,[1],< 1 µM
same,IC50,[2],< 10 µM
"Cc1ccc(NC(=O)c2ccc(CN3CCN(C)CC3)cc2)cc1Nc1nc(-c2cccc(F)c2)cs1 [Compound 111, N-{3-[4-(3-Fluoro-phenyl)-thiazol-2-ylamino]-4-methyl-phenyl}-4-(4-methyl-piperazin-1-ylmethyl)-benzamide]",IC50,[1],< 1 µM
same,IC50,[2],< 10 µM
"COc1cccc(-c2csc(Nc3cc(NC(=O)c4ccc(CN5CCN(C)CC5)cc4)ccc3C)n2)c1 [Compound 113, N-{3-[4-(3-Methoxy-phenyl)-thiazol-2-ylamino]-4-methyl-phenyl}-4-(4-methyl-piperazin-1-ylmethyl)-benzamide]",IC50,[1],< 1 µM
same,IC50,[2],< 10 µM
"Cc1ccc(NC(=O)c2ccc(CN3CCN(C)CC3)cc2)cc1Nc1nc(-c2cccc([N+](=O)[O-])c2)cs1 [Compound 117, N-{4-Methyl-3-[4(3-nitro-phenyl)-thiazol-2-ylamino]-phenyl}-4-(4-methyl-piperazin-1-ylmethyl)-benzamide]",IC50,[1],< 1 µM
same,IC50,[2],< 10 µM
"Cc1ccc(NC(=O)c2ccc(CN3CCN(C)CC3)cc2)cc1Nc1nc(-c2ccccc2F)cs1 [Compound 118, N-{3-[4-(2-Fluoro-phenyl)-thiazol-2-ylamino]-4-methyl-phenyl}-4-(4-methyl-piperazin-1-ylmethyl)-benzamides]",IC50,[1],< 1 µM
same,IC50,[2],< 10 µM
